Results published in article PMC8824903.
No constants are given. Whether binding was seen depends on the method and setting. In cells and extracts the contact can be indirect. Some binding calls cover weakened binding; strength is not graded here.

Chains of the proteins cited; added tags and fusions are not shown.
UniProt P60484: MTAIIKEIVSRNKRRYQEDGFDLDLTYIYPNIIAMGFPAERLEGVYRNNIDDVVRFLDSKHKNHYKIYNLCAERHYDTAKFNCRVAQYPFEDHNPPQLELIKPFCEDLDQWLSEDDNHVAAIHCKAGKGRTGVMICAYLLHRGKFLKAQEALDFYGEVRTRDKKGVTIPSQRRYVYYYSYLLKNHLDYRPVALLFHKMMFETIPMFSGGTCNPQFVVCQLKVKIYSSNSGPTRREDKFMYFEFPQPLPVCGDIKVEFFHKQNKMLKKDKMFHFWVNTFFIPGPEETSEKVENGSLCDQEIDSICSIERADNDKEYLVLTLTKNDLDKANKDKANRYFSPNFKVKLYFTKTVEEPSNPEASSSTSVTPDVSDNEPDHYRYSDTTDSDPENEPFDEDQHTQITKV

Target: FLAG-PTEN (UniProt P60484)
Test: co-IP; total protein from oe-PTEN or oe-NC cells incubated with Anti-Flag M2 Affinity Gel at 4 C overnight, washed with TBS; western blot for Flag and TOB1

binding: binds
B1: transducer of ERBB2.1 (TOB1) (protein, UniProt P50616 1-345)
chain: MQLEIQVALNFIISYLYNKLPRRRVNIFGEELERLLKKKYEGHWYPEKPYKGSGFRCIHIGEKVDPVIEQASKESGLDIDDVRGNLPQDLSVWIDPFEVSYQIGEKGPVKVLYVDDNNENGCELDKEIKNSFNPEAQVFMPISDPASSVSSSPSPPFGHSAAVSPTFMPRSTQPLTFTTATFAATKFGSTKMKNSGRSNKVARTSPINLGLNVNDLLKQKAISSSMHSLYGLGLGSQQQPQQQQQPAQPPPPPPPPQQQQQQKTSALSPNAKEFIFPNMQGQGSSTNGMFPGDSPLNLSPLQYSNAFDVFAAYGGLNEKSFVDGLNFSLNNMQYSNQQFQPVMAN
